This note sets out measurements from publication PMC3250450.

Chains of the proteins cited; added tags and fusions are not shown. Lines headed by an entry give the natural chain unless they say otherwise; changes in a name come on top.
UniProt P15976: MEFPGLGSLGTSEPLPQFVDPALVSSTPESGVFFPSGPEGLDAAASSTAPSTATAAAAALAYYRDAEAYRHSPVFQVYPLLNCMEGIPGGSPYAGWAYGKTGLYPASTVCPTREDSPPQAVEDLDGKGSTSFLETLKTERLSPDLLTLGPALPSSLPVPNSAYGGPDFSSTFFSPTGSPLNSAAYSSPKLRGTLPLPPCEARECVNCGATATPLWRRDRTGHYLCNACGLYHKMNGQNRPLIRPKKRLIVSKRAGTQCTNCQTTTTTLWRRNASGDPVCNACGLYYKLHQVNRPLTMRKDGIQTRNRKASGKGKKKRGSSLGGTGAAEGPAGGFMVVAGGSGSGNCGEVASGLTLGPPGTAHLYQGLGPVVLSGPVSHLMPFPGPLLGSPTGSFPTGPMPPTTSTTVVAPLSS

The exact form of at least one protein or probe is not confirmed. At least one result comes from cells or an extract, where the contact may be indirect. For some assays here: No signal at the amounts used counts as a negative.

The target in data set [1] is GATA-1 (UniProt P15976). Briefly: competition with a labelled probe. The settings on record: LightShift Chemiluminescent EMSA Kit (Pierce) per manufacturer, K562 nuclear extract, 6% nondenaturing PAGE, pH and temperature not stated, protein in an extract, label: 3' biotin (both strands), unlabeled as competitor.
Data set [2] addresses GATA-1 (UniProt P15976). Briefly: EMSA. The following applies: LightShift Chemiluminescent EMSA Kit (Pierce) per manufacturer, K562 nuclear extract, 6% nondenaturing PAGE, pH and temperature not stated, protein in an extract, label: 3' biotin (both strands). For orientation: Mobility shift assays separate free from complexed probe on a gel.
The target in data set [3] is GATA-1 (UniProt P15976). Briefly: EMSA supershift. The following applies: anti-GATA-1 antibody; LightShift Chemiluminescent EMSA Kit (Pierce) per manufacturer; K562 nuclear extract; 6% nondenaturing PAGE; pH and temperature not …; protein in an extract; label: 3' biotin (both strands), unlabeled as competitor.

As for “AAAGAGATAGGCGAGTACATCAGTC (double strand) [G1-m]”, the binding result with GATA-1 [1] (200-fold unlabeled G1-m against labeled G1) and with GATA-1 [2] (unlabeled as competitor) was “no binding” throughout.

“AAAGAGATATTATCTTACATCAGTC (double strand) [G1]”: the binding result with GATA-1 [1] (200-fold unlabeled G1 competes labeled G1) and in the data set with GATA-1 [3] was “binds” each time. For the sequence “AATCATGCGTGATAAAAGAATCCAT (double strand) [G8]”, in the data set with GATA-1 [2], the binding result is “no binding”. On the same count and under the same terms, the value for “AGAAAACTTGTATCTGCCTCTGTGA (double strand) [G7]” was “no binding”; that for “AGTGTGGGATGATAGACAATGAAGA (double strand) [G6]” was “no binding”; that for “ATTACCATTTGATAAAGCAATCCTG (double strand) [G2]” was “no binding”. Same read-out and setting: under “CTAACAAAACTATCCCTTGTTCGAC (double strand) [G9]” stands “no binding”. As for “CTCATATGTTTATCACAGCACTATT (double strand) [G4]”, the binding result in the data set with GATA-1 [2] was “no binding”.

Consider “TAGTGGCCACTATCTTCAGTGAAAC (double strand) [G5]”, for which the binding result with GATA-1 [2] is “no binding”. On the same count and under the same terms, the value for “TGTTACTGAGTATCTACCCAAAGGA (double strand) [G3]” was “no binding”; that for “TGTTCGACTTGTATCTTTATATACT (double strand) [G10]” was “no binding”.

For the sequence “TTGTTCCTCAGATAGCGTTCATCGC (double strand) [G11]”, the binding result in the data set with GATA-1 [2] is reported as “no binding”.
